The other results are listed elsewhere or left out. Shown are side measurements of this screen, not its main read-out; they come without a call. The list favours compounds with an active or inconclusive main result. The note in brackets gives the kind of curve behind each potency; many fits are weak.
Assay: qHTS Assay for Modulators of Lamin A Splicing
Settings: HeLa LMNA splicing GFP/RFP minigene ratio, 48 h
Method in brief: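 S3 HeLa stable clones carrying a lamin A-EGFP splicing minigene plus DsRed2 were seeded at 600 cells/well in Opti-MEM with 2% FBS, pin-dosed and incubated 48 h at 37°C. Acumen cytometry (488 nm) gave the GFP/RFP total-intensity ratio.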

[1] = measured here: GFP splicing reporter channel
[2] = measured here: RFP viability control channel

Row | Structure (SMILES) | AC50 [1] | AC50 [2]
1 | O=C(N/N=C/c1cn(-c2ccccc2)nc1-c1cc2ccccc2o1)c1ccncc1 | 15.8 µM [rising, single point] | –
2 | COc1ccc(-c2nnn(CC(=O)c3ccc4c(c3)OCCO4)n2)cc1OC | 22.4 µM [rising, single point] | 11.2 µM [rising, partial curve]
3 | N#CCc1nc2c3c4c(sc3ncn2n1)CCCC4 | – | 3.98 µM [falling, full curve]
4 | CC(=C/c1ccccc1)/C=N/NC(=O)CSc1nc(C)cc(C)n1 | – | 20 µM [rising, single point]
5 | CC(=O)c1cccc(CN2CCCC(CCC(=O)NCc3ccc(F)c(F)c3)C2)c1 (stereo not drawn) | 0.0282 µM [rising, full curve, poor fit] | –
6 | CC1CC(C)CN(C(=O)COC(=O)c2cccc([N+](=O)[O-])c2)C1 (stereo not drawn) | – | 0.562 µM [rising, full curve, poor fit]
7 | CCCCCCCCC(=O)N/N=C(\C)c1ccc(O)cc1O | – | 15.8 µM [rising, single point]
8 | COC(=O)c1c(NC(=O)/C=C/c2ccco2)sc2c1CCC2 | 17.8 µM [rising, single point] | 35.5 µM [rising, single point]
9 | Cn1c(SCc2cc(=O)c3cc(Cl)ccc3[nH]2)nnc1-c1ccccc1 | 0.158 µM [rising, full curve, poor fit] | –
10 | Cc1csc(NC(=O)Cn2nc(C)c([N+](=O)[O-])c2C)n1 | – | 3.98 µM [rising, full curve, poor fit]
11 | Cc1ccccc1Cn1nnc(-c2ccc(C(=O)O)cc2)n1 | – | 7.08 µM [falling, partial curve, poor fit]
12 | COc1ccc(CCNC(=O)c2cnn3ccccc23)c(OC)c1OC | – | 10 µM [rising, partial curve, poor fit]
13 | COc1ccc(C(=O)NCc2ccc3c(c2)CCN3C(=O)c2ccccc2)cc1 | 10 µM [falling, partial curve] | 6.31 µM [falling, partial curve]
14 | CCOc1cccc(OCCOCCOc2ccccc2C(C)=O)c1 | 11.2 µM [rising, single point] | 14.1 µM [rising, single point]
15 | O=C(O)CCCC[C@@H]1CCSS1 | 0.00501 µM [falling, full curve] | –
16 | COCCn1c(C)cc(C(=O)CN2C(=O)NC3(CCCCCCC3)C2=O)c1C | 35.5 µM [rising, single point] | –
17 | Cc1ccc(Cl)cc1N1CCN(C(=O)c2ccc(CS(=O)c3ccccc3)o2)CC1 (stereo not drawn) | – | 0.891 µM [rising, full curve]
18 | COc1c(Cl)cc(Cl)cc1/C=C/C(=O)c1ccc(NC(=O)c2cccs2)cc1 | 35.5 µM [falling, single point] | 6.31 µM [falling, single point]
19 | Cc1ccc(NC(=O)CCC(=O)NNC(=S)Nc2ccccc2)c(C)c1 | – | 0.0398 µM [falling, full curve, poor fit]
20 | Cc1ccc(C(=O)Nc2c(-c3cccs3)c(=O)c3ccccc3n2C)cc1 | – | 11.2 µM [rising, partial curve]
21 | COc1ccc(NS(=O)(=O)c2ccc(-c3cnc(C4CC4)o3)cc2)cc1Cl | – | 0.158 µM [rising, full curve, poor fit]
22 | O=C(/C=C/c1ccco1)Nc1nc(-c2ccccn2)cs1 | – | 28.2 µM [falling, partial curve]
23 | O=C(NC(c1ccccc1)c1ccccc1)c1cccc(S(=O)(=O)NCc2ccccc2)c1 | 31.6 µM [rising, single point] | 31.6 µM [rising, single point]
24 | Cc1cccc(C)c1NC(=O)c1ccc([N+](=O)[O-])s1 | – | 35.5 µM [rising, single point]
25 | Cc1ccc(C)c(N2CCN(C(=O)CCCCn3c(=O)[nH]c4ccccc4c3=O)CC2)c1 | 25.1 µM [rising, single point] | 15.8 µM [rising, partial curve]
26 | O=C(/C=C/c1ccccc1)c1ccccn1 | 35.5 µM [falling, single point] | 31.6 µM [falling, single point]
27 | O=C(Nc1ncccc1Cl)C(Sc1ccccc1)c1ccccc1 (stereo not drawn) | 14.1 µM [rising, partial curve, poor fit] | 11.2 µM [rising, partial curve, poor fit]
28 | COc1ccc(CN(C#N)c2nc(SC)nc(N(C)C)n2)cc1 | – | 22.4 µM [rising, single point]

Row | Structure (SMILES) | AC50 [1] | AC50 [2]
29 | CC(=O)Oc1ccc(OC(C)=O)c(SCCCCCN2CCOCC2)c1 | 15.8 µM [falling, single point] | 14.1 µM [falling, single point]
30 | COc1ccccc1CNc1ncnc2ccc(-c3ccccc3OC)cc12 | 11.2 µM [falling, partial curve] | 15.8 µM [falling, single point]
31 | COc1ccccc1NC(C)C(=O)Nc1ccc(C(C)=O)cc1 (stereo not drawn) | 35.5 µM [rising, single point] | 35.5 µM [rising, single point]
32 | COc1ccc(C(=O)C2CCN(C(=O)c3ccc(C)cc3)CC2)cc1 | – | 11.2 µM [rising, partial curve]
33 | Cc1cc(=O)n2[nH]c(C)c(-c3ccc(Cl)cc3)c2n1 | 14.1 µM [rising, single point] | 25.1 µM [rising, single point]
34 | Cc1ccc(-n2ncc3c(N4CCCC4)ncnc32)c(C)c1 | 14.1 µM [rising, single point] | 22.4 µM [rising, single point]
35 | CC(C)C(C(=O)NCc1ccco1)N(C(=O)CNS(=O)(=O)c1ccccc1)c1ccccc1 (stereo not drawn) | 28.2 µM [rising, partial curve, poor fit] | 22.4 µM [rising, partial curve, poor fit]
36 | O=C(Cn1cnc2cc([N+](=O)[O-])ccc2c1=O)NC1CCS(=O)(=O)C1 (stereo not drawn) | 2.82 µM [falling, partial curve] | –
37 | CCOC(=O)N1CCC(N2C(=O)c3ccccc3C2Nc2ccc(S(=O)(=O)N3CCCCC3)cc2)CC1 (stereo not drawn) | 6.31 µM [rising, single point] | –
38 | CCCCN1C(=O)C(O)(CC(=O)c2ccco2)c2cc(Br)ccc21 (stereo not drawn) | 14.1 µM [rising, single point] | 14.1 µM [rising, partial curve, poor fit]
39 | Cc1ccc(C(=O)N/C(=C\c2ccc(Br)cc2)c2nc(=S)[nH][nH]2)cc1 | 35.5 µM [falling, single point] | 35.5 µM [falling, partial curve]
40 | Cc1cccc(Nc2ccncc2S(=O)(=O)NC(=O)NC(C)C)c1 | 5.62 µM [falling, partial curve, poor fit] | –
41 | COc1ccc(NS(=O)(=O)c2ccc3[nH]c(=O)ccc3c2)cc1OC | 15.8 µM [rising, partial curve, poor fit] | 20 µM [rising, partial curve]
42 | CC(C)c1c(O)nc(SCC(=O)Nc2ccc3c(c2)CCC3)[nH]c1=O | 20 µM [rising, partial curve] | 35.5 µM [rising, single point]
43 | O=C(Cc1ccccc1)Nc1ccccc1Sc1ccccc1 | 11.2 µM [rising, single point] | 25.1 µM [rising, single point]
44 | CCn1c(CSc2nc3ccccc3s2)nc2ccccc21 | – | 14.1 µM [rising, single point]
45 | COc1ccc(O[C@H]2C=C[C@@H](c3ccccc3)O[C@@H]2COC(=O)CC/C(C)=N/O[C@H](C)c2cn([C@@H]3COC[C@H]3O)nn2)cc1 | 14.1 µM [rising, partial curve] | 15.8 µM [rising, partial curve]
46 | Cn1c(SCC(=O)Nc2sc3c(c2C#N)CCC3)nnc1C1COc2ccccc2O1 (stereo not drawn) | – | 35.5 µM [rising, single point]
47 | O=C(Oc1ccccc1N1C(=O)C2CCCCC2C1=O)c1ccccc1F (stereo not drawn) | – | 0.794 µM [rising, full curve, poor fit]
48 | Cc1ccc(NNC(=O)c2c(C)noc2C)cc1Cl | 35.5 µM [rising, single point] | –
49 | Fc1ccccc1COc1ccc(Br)cc1CNCC1CCCO1 (stereo not drawn) | – | 35.5 µM [rising, single point]
50 | O=C(c1ccco1)N1CCCN(Cc2nc(-c3ccc4c(c3)OCO4)no2)CC1 | – | 0.0562 µM [falling, full curve, poor fit]
51 | COc1cccc(/C=N/NC(=O)CN(CCc2ccccc2)S(=O)(=O)c2ccc(NC(C)=O)cc2)c1 | – | 14.1 µM [rising, partial curve]
52 | O=C(Nc1nccs1)c1sc2cc(Cl)ccc2c1Cl | 17.8 µM [falling, single point] | 25.1 µM [falling, single point]
53 | O=C(CSc1nnc2c(Cl)cc(C(F)(F)F)cn12)NCc1ccc(F)cc1 | 14.1 µM [rising, single point] | –
54 | CC(=O)Nc1ccc(/C(C)=N/NC(=O)c2ccc(CN3CCOCC3)cc2)cc1 | – | 0.0891 µM [falling, full curve, poor fit]
55 | CCC(=O)Nc1nnc(Sc2ccc(N(C)C)cc2)s1 | 0.398 µM [rising, full curve] | 0.355 µM [rising, full curve, poor fit]

Single records (already shown). Order of values: AC50 [1] | AC50 [2]
`O=C(NC(c1ccccc1)c1ccccc1)c1cccc(S(=O)(=O)NCc2ccccc2)c1` reads 31.6 µM [rising, single point] | 31.6 µM [rising, single point]
`O=C(/C=C/c1ccccc1)c1ccccn1` reads 35.5 µM [falling, single point] | 31.6 µM [falling, single point]

Quoted from above: nos. 36–37
Row | Structure (SMILES) | AC50 [1] | AC50 [2]
36 | O=C(Cn1cnc2cc([N+](=O)[O-])ccc2c1=O)NC1CCS(=O)(=O)C1 (stereo not drawn) | 2.82 µM [falling, partial curve] | –
37 | CCOC(=O)N1CCC(N2C(=O)c3ccccc3C2Nc2ccc(S(=O)(=O)N3CCCCC3)cc2)CC1 (stereo not drawn) | 6.31 µM [rising, single point] | –
